These are yes or no findings as the source states them, for the method shown. In cells and extracts the contact can be indirect. Some entries that bind do so weakly or less than the wild type. Each block holds one molecule with its values, some of them ahead of it.
Target: connexin 43 (human (endogenous in HMT-3522 S1)) (UniProt P17302)
Assay: co-IP; IP of endogenous Cx43 (0.25 μg rabbit polyclonal Cx43 antibody, protein G sepharose beads, 300 μg of proteins) from whole cell lysates of S1 cells in 2-D culture, day 6; Western blotting for Cx43, β-catenin and ZO-2

By UniProt entry, the sequences of proteins in these tests, tags left out.
UniProt P17302: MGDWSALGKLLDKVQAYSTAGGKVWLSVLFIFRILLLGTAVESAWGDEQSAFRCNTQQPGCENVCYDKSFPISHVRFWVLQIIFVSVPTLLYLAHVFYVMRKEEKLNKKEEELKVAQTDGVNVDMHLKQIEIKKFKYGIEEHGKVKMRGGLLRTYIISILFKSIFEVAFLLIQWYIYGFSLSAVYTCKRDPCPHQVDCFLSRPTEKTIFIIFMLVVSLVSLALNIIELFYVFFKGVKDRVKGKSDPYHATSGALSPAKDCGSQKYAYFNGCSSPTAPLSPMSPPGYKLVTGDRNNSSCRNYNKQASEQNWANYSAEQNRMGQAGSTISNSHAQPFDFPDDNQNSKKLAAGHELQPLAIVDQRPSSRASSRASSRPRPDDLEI
UniProt P35222: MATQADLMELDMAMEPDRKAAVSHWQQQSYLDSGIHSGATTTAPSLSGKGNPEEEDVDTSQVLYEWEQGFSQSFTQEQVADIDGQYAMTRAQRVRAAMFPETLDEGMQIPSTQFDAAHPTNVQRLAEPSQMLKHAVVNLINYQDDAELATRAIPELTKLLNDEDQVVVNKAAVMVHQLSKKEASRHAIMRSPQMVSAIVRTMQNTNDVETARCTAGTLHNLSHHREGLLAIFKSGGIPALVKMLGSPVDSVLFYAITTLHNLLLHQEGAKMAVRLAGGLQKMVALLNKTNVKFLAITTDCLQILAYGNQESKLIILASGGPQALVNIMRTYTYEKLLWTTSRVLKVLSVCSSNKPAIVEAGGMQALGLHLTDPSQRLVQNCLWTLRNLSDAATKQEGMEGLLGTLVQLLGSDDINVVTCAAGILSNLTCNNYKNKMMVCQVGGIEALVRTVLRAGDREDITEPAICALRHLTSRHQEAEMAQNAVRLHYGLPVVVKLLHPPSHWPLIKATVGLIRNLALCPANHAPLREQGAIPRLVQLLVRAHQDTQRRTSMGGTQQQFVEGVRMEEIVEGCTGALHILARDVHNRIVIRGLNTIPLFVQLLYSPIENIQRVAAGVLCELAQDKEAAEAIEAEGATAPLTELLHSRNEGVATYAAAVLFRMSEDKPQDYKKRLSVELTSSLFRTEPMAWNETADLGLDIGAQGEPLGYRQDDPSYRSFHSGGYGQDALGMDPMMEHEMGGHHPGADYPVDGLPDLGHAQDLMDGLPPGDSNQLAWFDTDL

binding: binds
Molecule: β-catenin (from UniProt P35222 1-781)

binding: binds
B1: ZO-2 (protein, UniProt Q9UDY2 1-1190)
chain: MPVRGDRGFPPRRELSGWLRAPGMEELIWEQYTVTLQKDSKRGFGIAVSGGRDNPHFENGETSIVISDVLPGGPADGLLQENDRVVMVNGTPMEDVLHSFAVQQLRKSGKVAAIVVKRPRKVQVAALQASPPLDQDDRAFEVMDEFDGRSFRSGYSERSRLNSHGGRSRSWEDSPERGRPHERARSRERDLSRDRSRGRSLERGLDQDHARTRDRSRGRSLERGLDHDFGPSRDRDRDRSRGRSIDQDYERAYHRAYDPDYERAYSPEYRRGARHDARSRGPRSRSREHPHSRSPSPEPRGRPGPIGVLLMKSRANEEYGLRLGSQIFVKEMTRTGLATKDGNLHEGDIILKINGTVTENMSLTDARKLIEKSRGKLQLVVLRDSQQTLINIPSLNDSDSEIEDISEIESNRSFSPEERRHQYSDYDYHSSSEKLKERPSSREDTPSRLSRMGATPTPFKSTGDIAGTVVPETNKEPRYQEDPPAPQPKAAPRTFLRPSPEDEAIYGPNTKMVRFKKGDSVGLRLAGGNDVGIFVAGIQEGTSAEQEGLQEGDQILKVNTQDFRGLVREDAVLYLLEIPKGEMVTILAQSRADVYRDILACGRGDSFFIRSHFECEKETPQSLAFTRGEVFRVVDTLYDGKLGNWLAVRIGNELEKGLIPNKSRAEQMASVQNAQRDNAGDRADFWRMRGQRSGVKKNLRKSREDLTAVVSVSTKFPAYERVLLREAGFKRPVVLFGPIADIAMEKLANELPDWFQTAKTEPKDAGSEKSTGVVRLNTVRQIIEQDKHALLDVTPKAVDLLNYTQWFPIVIFFNPDSRQGVKTMRQRLNPTSNKSSRKLFDQANKLKKTCAHLFTATINLNSANDSWFGSLKDTIQHQQGEAVWVSEGKMEGMDDDPEDRMSYLTAMGADYLSCDSRLISDFEDTDGEGGAYTDNELDEPAEEPLVSSITRSSEPVQHEESIRKPSPEPRAQMRRAASSDQLRDNSPPPAFKPEPPKAKTQNKEESYDFSKSYEYKSNPSAVAGNETPGASTKGYPPPVAAKPTFGRSILKPSTPIPPQEGEEVGESSEEQDNAPKSVLGKVKIFEKMDHKARLQRMQELQEAQNARIEIAQKHPDIYAVPIKTHKPDPGTPQHTSSRPPEPQKAPSRPYQDTRGSYGSDAEEEEYRQQLSEHSKRGYYGQSARYRDTEL

Source: paper PMC6468895
